Data reported in the supplement of paper PMC4962491.
Structures can show the parent of a compound that is named as a salt. ± gives the standard deviation of the averaged measurements. Only a part is listed here, and it is no random draw. Single values are uncertain here, since repeats match poorly.

Test system: FaDu
Experiment: mitochondrial oxygen consumption rate normalised to cell number, Z score over the library; higher = higher oxygen consumption (negative = OCR reduction)
Settings: treatment time 24 h, assay medium: 5 mM galactose, 5 mM pyruvate, 4 mM glutamine
Description: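 Primary screen: FaDu cells were incubated 24 h with Pharmakon 1600 / TDI oncology set compounds at 2 or 10 uM. Mitochondrial-specific OCR (basal minus 2 uM antimycin A) was measured on a Seahorse XF96 in assay medium with 5 mM galactose, 5 mM pyruvate and 4 mM glutamine, then corrected for Hoechst cell number and expressed as a Z score […]. Compounds that cut cell number by >66% were excluded. Two repeats.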

Structure (SMILES) | mitochondrial oxygen consumption rate normalised (2 µM) | mitochondrial oxygen consumption rate normalised (10 µM)
CC[C@@H]1C(=O)OC[C@@H]1Cc1cncn1C | 2.5 ± 1.8 | 
CN1C(=O)CC[C@H]1c1cccnc1 | -0.202 ± 0.068 | 
NS(=O)(=O)c1cc2c(cc1C(F)(F)F)NCNS2(=O)=O | -0.63 ± 0.11 | 
C=C(C)[C@H]1CC=C(C)CC1 | 0.777 ± 1.4 | 
NC(=O)CCCCC1CCSS1 (stereo unspecified) | -0.862 ± 0.23 | 1.43 ± 0.3
CCC1(C)OC(=O)N(C)C1=O (stereo unspecified) | 0.316 ± 0.96 | 0.0479 ± 0.05
N[C@@H](Cc1c[nH]c2ccccc12)C(=O)O | 0.839 ± 0.29 | 
O=C(OOC(=O)c1ccccc1)c1ccccc1 | 0.0605 ± 0.52 | 
CC(O)Cn1cnc2c1c(=O)n(C)c(=O)n2C (stereo unspecified) | -0.154 ± 0.48 | 
CS(=O)(=O)OCCCCOS(C)(=O)=O | -0.447 ± 0.12 | 0.716 ± 1.1
CS(=O)(=O)OCCCCOS(C)(=O)=O [Busulfan] | 0.456 ± 0.81 | 0.391 ± 1.2
Cc1c(NC(=O)c2cccnc2)c(=O)n(-c2ccccc2)n1C | 0.733 ± 1.2 | 
CNC(=O)c1cc(Oc2ccc(NC(=O)Nc3ccc(Cl)c(C(F)(F)F)c3)cc2)ccn1 [sorafenib] | 0.191 ± 1 | 
COc1cccc2c1C(=O)c1c(O)c3c(c(O)c1C2=O)C[C@@](O)(C(C)=O)C[C@@H]3O[C@H]1C[C@H](N)[C@H](O)[C@H](C)O1 | -2.99 ± 1.2 | 
CC(=O)NS(=O)(=O)c1ccc(N)cc1 | -0.833 ± 0.24 | 
Cc1cn([C@H]2C=C[C@@H](CO)O2)c(=O)[nH]c1=O | 1.25 ± 0.035 | 
C=CC1=C(C(=O)O)N2C(=O)[C@@H](NC(=O)/C(=N\O)c3csc(N)n3)[C@H]2SC1 | -0.23 ± 0.69 | 
CN1C(CCl)Nc2cc(Cl)c(S(N)(=O)=O)cc2S1(=O)=O (stereo unspecified) | 0.185 ± 1.2 | 
OCc1ccccc1O[C@@H]1O[C@H](CO)[C@@H](O)[C@H](O)[C@H]1O | 0.73 ± 0.4 | 0.956 ± 0.64
CC(=O)OCC(=O)[C@@]12OC(C)(C)O[C@@H]1C[C@H]1[C@@H]3C[C@H](F)C4=CC(=O)C=C[C@]4(C)[C@@]3(F)[C@@H](O)C[C@@]12C | -0.228 ± 0.55 | 0.605 ± 0.52
c1ccc2c(CC3=NCCN3)cccc2c1 | 0.686 ± 0.095 | 

Three entries from above, in markdown.

| Structure (SMILES) | mitochondrial oxygen consumption rate normalised (2 µM) | mitochondrial oxygen consumption rate normalised (10 µM) |
| --- | --- | --- |
| CC[C@@H]1C(=O)OC[C@@H]1Cc1cncn1C | 2.5 ± 1.8 |  |
| CN1C(=O)CC[C@H]1c1cccnc1 | -0.202 ± 0.068 |  |
| NS(=O)(=O)c1cc2c(cc1C(F)(F)F)NCNS2(=O)=O | -0.63 ± 0.11 |  |

Additional results

Structure (SMILES) | mitochondrial oxygen consumption rate normalised (2 µM) | mitochondrial oxygen consumption rate normalised (10 µM)
CCN(CC)CC(=O)Nc1c(C)cccc1C | 0.379 ± 0.18 | 
CC(=O)CC(c1ccccc1)c1c(O)c2ccccc2oc1=O (stereo unspecified) | 0.748 ± 0.072 | 
NS(=O)(=O)c1cc2c(cc1Cl)NC(C1CC3C=CC1C3)NS2(=O)=O (stereo unspecified) | -0.373 ± 0.54 | 
O=C1NS(=O)(=O)c2ccccc21 | -0.52 ± 1 | 
O=c1oc2c(O)c(O)cc3c(=O)oc4c(O)c(O)cc1c4c23 | -1.64 ± 1.5 | 
Oc1c(Cl)cc(Cl)c(Cl)c1Cc1c(O)c(Cl)cc(Cl)c1Cl | -3.27 ± 0.72 | -6.031 ± 0.028
Cc1c(N(C)C)c(=O)n(-c2ccccc2)n1C | -0.32 ± 0.093 | 
CCOC(=O)C1=C(COCCN)NC(C)=C(C(=O)OC)C1c1ccccc1Cl (stereo unspecified) | -0.327 ± 0.78 | 
CCN(CC)CCNC(=O)c1c(C)[nH]c(/C=C2\C(=O)Nc3ccc(F)cc32)c1C [Sunitinib Malate] | 0.376 ± 0.31 | -0.335 ± 0.17
COc1ccc(/C=C/C(=O)Nc2ccccc2C(=O)O)cc1OC | 0.915 ± 0.035 | 
Cc1cccc(C)c1OCC(C)N (stereo unspecified) | 0.192 ± 0.88 | 
O=C(CCCCCCCC(=O)NCCO)NCCO | -0.904 ± 0.4 | 
CN1[C@@H]2CC[C@H]1C[C@@H](OC(=O)c1c[nH]c3ccccc13)C2 | -3.09 ± 2 | 
CC(=O)[C@H]1CC[C@H]2[C@@H]3C=CC4=CC(=O)CC[C@@]4(C)[C@@H]3CC[C@]12C | -0.00235 ± 0.59 | 
Cc1cc(=O)[nH]c(=S)[nH]1 | -1.41 ± 1 | 
COc1ccccc1OCC(O)CO (stereo unspecified) | -0.69 ± 0.67 | 
CC[C@]1(O)C[C@H]2CN(CCc3c([nH]c4ccccc34)[C@@](C(=O)OC)(c3cc4c(cc3OC)N(C=O)[C@H]3[C@@](O)(C(=O)OC)[C@H](OC(C)=O)[C@]5(CC)C=CCN6CC[C@]43[C@@H]65)C2)C1 | 0.448 ± 0.25 | 
CC[C@]1(O)C[C@H]2CN(CCc3c([nH]c4ccccc34)[C@@](C(=O)OC)(c3cc4c(cc3OC)N(C=O)[C@H]3[C@@](O)(C(=O)OC)[C@H](OC(C)=O)[C@]5(CC)C=CCN6CC[C@]43[C@@H]65)C2)C1 [Vincristine Sulfate] | 0.678 ± 0.53 | 
NC[C@@H]1O[C@H](O[C@H]2[C@@H](O)[C@H](O[C@@H]3[C@@H](O)[C@H](N)C[C@H](N)[C@H]3O[C@H]3O[C@H](CO)[C@@H](O)[C@H](O)[C@H]3N)O[C@@H]2CO)[C@H](N)[C@@H](O)[C@@H]1O | 0.884 ± 0.16 | 
COc1cc2c(N3CCN(C(=O)Nc4ccc(OC(C)C)cc4)CC3)ncnc2cc1OCCCN1CCCCC1 | 0.932 ± 1.6 | 
CC(C(=O)O)c1ccc(-c2ccccc2)c(F)c1 (stereo unspecified) | -0.985 ± 0.56 | 

Structure (SMILES) | mitochondrial oxygen consumption rate normalised (2 µM) | mitochondrial oxygen consumption rate normalised (10 µM)
O=C(OCC(O)CO)c1ccccc1Nc1ccnc2cc(Cl)ccc12 (stereo unspecified) | -0.0365 ± 0.92 | 
Cc1c(OCC(F)(F)F)ccnc1C[S@@+]([O-])c1nc2ccccc2[nH]1 | 0.509 ± 0.26 | 
CN(C)C(=O)C(CCN1CCC(O)(c2ccc(Cl)cc2)CC1)(c1ccccc1)c1ccccc1 | -1.38 ± 0.13 | 
CC(=O)C1C(=O)C=C(C)OC1=O (stereo unspecified) | 0.646 ± 0.39 | 
Nc1nc2[nH]cnc2c(=S)[nH]1 [Thioguanine] | 0.0792 ± 0.94 | 0.0465 ± 0.27
Nc1nc2[nH]cnc2c(=S)[nH]1 | -1.61 ± 0.025 | -2.58 ± 0.18
O=C1c2c(O)cccc2C([C@@H]2O[C@H](CO)[C@@H](O)[C@H](O)[C@H]2O)c2cc(CO)cc(O)c21 (stereo partly specified) | 1.54 ± 2.8 | 
Cc1cccc(C)c1NC(=O)C(C)N (stereo unspecified) | 0.412 ± 1.1 | 
CO/N=C(\C(=O)N[C@@H]1C(=O)N2C(C(=O)O)=C(CSc3nnnn3C)CS[C@H]12)c1csc(N)n1 | 0.547 ± 0.28 | 
CC(C(=O)O)c1ccc2c(c1)[nH]c1ccc(Cl)cc12 (stereo unspecified) | 0.118 ± 0.67 | 
CCOC(=O)O[C@]1(C(=O)COC(=O)CC)CC[C@H]2[C@@H]3CCC4=CC(=O)C=C[C@]4(C)[C@H]3[C@@H](O)C[C@@]21C | -0.189 ± 1.3 | 
O=C(O)c1cc(/N=N/c2ccc(O)c(C(=O)O)c2)ccc1O | -1.41 ± 0.16 | 
COc1ccc2c(c1OC)C(=O)O[C@@H]2[C@H]1c2c(cc3c(c2OC)OCO3)CCN1C | 0.497 ± 0.3 | 
CC(=O)NCCCS(=O)(=O)O | 0.0258 ± 0.28 | 
C=C1c2c(Cl)ccc(O)c2C(=O)C2=C(O)[C@]3(O)C(=O)C(C(N)=O)=C(O)[C@@H](N(C)C)[C@@H]3[C@@H](O)[C@H]12.O=C(O)c1cc(S(=O)(=O)O)ccc1O | 0.605 ± 0.29 | 
CC(C)(C)NCC(O)COc1cccc2c1CCC(=O)N2 (stereo unspecified) | 0.219 ± 0.2 | 
COc1ccc2c(c1)c(CC(=O)O)c(C)n2C(=O)c1ccc(Cl)cc1 | -1.61 ± 1.9 | 
CN1CCC(=C2c3ccccc3CCc3cccnc32)CC1 | -0.554 ± 0.057 | 
OC[C@H]1O[C@H](O[C@]2(CCl)O[C@H](CCl)[C@@H](O)[C@@H]2O)[C@H](O)[C@@H](O)[C@H]1Cl | 0.484 ± 0.55 | 
